# In PubChem BioAssay AID2551 (National Center for Advancing Translational Sciences (NCATS), 2010):
# Protein sequences, listed by entry. Tags and fused reporters are not part of them. Lines headed by an entry give the natural chain unless they say otherwise; changes in a name come on top.
# UniProt P51450: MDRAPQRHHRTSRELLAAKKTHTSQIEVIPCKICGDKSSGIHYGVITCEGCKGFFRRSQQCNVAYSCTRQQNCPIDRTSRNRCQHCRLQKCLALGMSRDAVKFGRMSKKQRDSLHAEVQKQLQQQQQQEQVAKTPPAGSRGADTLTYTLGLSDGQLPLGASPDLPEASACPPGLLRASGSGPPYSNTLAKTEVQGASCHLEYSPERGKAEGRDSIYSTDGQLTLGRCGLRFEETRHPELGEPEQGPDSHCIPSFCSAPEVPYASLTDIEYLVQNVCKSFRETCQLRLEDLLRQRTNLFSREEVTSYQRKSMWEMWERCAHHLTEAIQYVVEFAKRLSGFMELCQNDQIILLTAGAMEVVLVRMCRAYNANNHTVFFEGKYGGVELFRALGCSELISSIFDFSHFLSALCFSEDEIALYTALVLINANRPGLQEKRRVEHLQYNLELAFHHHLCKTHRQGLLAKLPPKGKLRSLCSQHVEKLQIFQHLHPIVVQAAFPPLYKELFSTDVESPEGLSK
# Out of some 310,000 compounds screened, about 17,000 (5.5%) were called active. This list was built around the results that the source calls inconclusive (neither active nor inactive); the mix of calls is not that of the screen. The call rests on the fitted dose curve; in most records, active means well fitted inhibition curve with a large enough effect; inconclusive means small, poorly fitted or top-dose-only effect, or effect the other way; inactive means no such curve, though single readings can be large or run the other way. Where the call is inconclusive, the potency comes from a doubtful curve fit.
# Molecular target: Nuclear receptor ROR-gamma (Mus musculus) (UniProt P51450)
# Test: qHTS for inhibitors of ROR gamma transcriptional activity; further: nearly all actives have a fitted effect of over 60% in size
# Settings: Drosophila S2 Gal4-RORgamma UAS-luciferase reporter, 20 h; activity change, negative = inhibition: at 53.6 µM (top of the series)
# Summary of the method: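 Schneider cells (Drosophila), stable Gal4 DBD–ROR gamma + UAS-luc; 1 hr cmpd preincubation; Cu2+ induction 700 uM final; 20 hr ambient; luminescence.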
# On the % scale 0 is the no-effect control and ±100 the full control effect; potency means the concentration at half of the fitted maximal effect.
Structure (SMILES),Potency,"activity change, negative = inhibition"
Cn1c(CC(=O)Nc2ccc(Cl)cc2)nnc1SCC(=O)N1CCOCC1,inactive,
Cc1ccccc1NC(=S)NNC(=O)c1ccncc1,active: 10 µM,
Cc1ccc(/C=C/C(=O)NC(=S)Nc2ccc(S(=O)(=O)Nc3cc(C)on3)cc2)cc1,"inconclusive: 6.31 µM [activator, partial curve]",
Cc1ccc2oc(=O)c(/C=C(\O)c3ccccc3)nc2c1,"inconclusive: 35.5 µM [inhibitor, single point]",
O=C(NC(=S)Nc1nc2ccc(F)cc2s1)c1ccco1,active: 0.794 µM,
CCOC(=O)c1nnc(-c2ccccc2)nc1Sc1ccccc1Cl,inactive,
COc1ccc(Cl)cc1NC(=O)CNc1ccc(F)cc1C,"inconclusive: 22.4 µM [activator, single point]",
CCCCOc1ccc(Br)cc1CSC(=N)N,"inconclusive: 31.6 µM [inhibitor, single point]",
COc1ccc2[nH]cc(C(=O)CN(C)CCc3ccc(OC)c(OC)c3)c2c1,"inconclusive: 0.316 µM [activator, partial curve, poor fit]",
CC1(C)Oc2ccc3ccc(=O)oc3c2-c2cnoc21,"inconclusive: 3.16 µM [activator, single point]",
Cc1ccccc1C(=O)Nc1nnc(S(=O)(=O)N(C)Cc2ccco2)s1,"inconclusive: 11.2 µM [activator, partial curve]",
O=C(O)c1ccc2cccnc2c1O,active: 14.1 µM,
O=[N+]([O-])c1ccc(NCCCNS(=O)(=O)c2ccc(Cl)cc2)c(Cl)c1,"inconclusive: 35.5 µM [activator, single point]",
Cn1c(O)c(N=NC(=O)C2COc3ccccc3O2)c2ccccc21 (stereo not drawn),inactive,
O=C(O)CCCCCN1C(=O)/C(=C/c2ccncc2)SC1=S,active: 11.2 µM,
CCCCN(CC)Cc1ccc(CNC(=S)Nc2c(C)cc(C)cc2C)o1,active: 3.16 µM,
CC1CCc2c(C(=O)Nc3ccc(OC(F)(F)F)cc3)csc2C1 (stereo not drawn),"inconclusive: 11.2 µM [activator, partial curve]",
O=C(N/N=C/c1cn(-c2cccs2)nc1-c1ccccc1)c1ccccc1Br,active: 5.62 µM,
CC(NC(=O)CCSc1nc(-c2ccc3c(c2)OCO3)cc(C(F)(F)F)n1)c1ccccc1 (stereo not drawn),inactive,
c1ccc(-n2cnc3cc(NCc4ccccn4)ccc32)cc1,"inconclusive: 2 µM [activator, partial curve, poor fit]",
O=C(CN(C(=O)CCC(=O)Nc1nccs1)c1ccc(F)c(Cl)c1)NCc1ccco1,"inconclusive: 35.5 µM [activator, single point]",
CCNC(=S)N1CCN(c2ncccn2)CC1,"inconclusive: 4.47 µM [activator, partial curve]",
COC(=O)[C@@H](NC(=O)O[C@@H]1C(=O)c2cc(OC)ccc2O[C@H]1c1ccc(OC)c(Br)c1)C(C)C,inactive,
CCC1(C)Cc2ccccc2C(=S)N1 (stereo not drawn),active: 8.91 µM,

Structure (SMILES),Potency,"activity change, negative = inhibition"
O=C(Nc1ccncc1)c1ccc(F)cc1,"inconclusive: 35.5 µM [inhibitor, single point]",
COc1ccc(S(=O)(=O)N(Cc2cccnc2)Cc2cc3ccccc3[nH]c2=O)cc1,inactive,
C=C(C)c1cccc(C(C)(C)NC(=O)N2CCCC2)c1,"inconclusive: 0.141 µM [inhibitor, single point]",
Cc1ccc(CNC(=O)c2ccc(N(C)S(=O)(=O)c3ccccc3)cc2)cc1,inactive,
Cc1cccc(OCc2n[nH]c(=S)o2)c1C,"inconclusive: 35.5 µM [inhibitor, single point]",
CCOC(=O)c1c(C)[nH]c(C(=O)COC(=O)c2oc3ccc(OC)cc3c2C)c1C,inactive,
O=S1(=O)CC/C(=N\Nc2ccc(F)cc2)c2ccsc21,"inconclusive: 17.8 µM [activator, single point]",
CCOC(=O)c1ccc(N=c2sc(C(=O)OC)cc(=O)n2Cc2ccco2)cc1,"inconclusive: 12.6 µM [inhibitor, single point]",
COc1ccc(OC)c(CCNC(=O)CCC(=O)N2CCOc3ccc(C)cc32)c1,inactive,
Cc1ccc(NC(=O)CSc2ncn(-c3ccccc3)n2)cc1C,"inconclusive: 6.31 µM [activator, single point]",
NC(=O)CCCCC1CCSS1 (stereo not drawn),,inactive: -0.3% [at 10 µM]
O=C(N/C=C/c1ccco1)OCc1ccccc1,inactive,
COc1ccc(Cl)cc1-c1n[nH]c(=S)o1,"inconclusive: 35.5 µM [inhibitor, single point]",
CN(C)CCCN(C(=O)c1ccc(S(=O)(=O)N(C)C2CCCCC2)cc1)c1nc2ccc(F)cc2s1,"inconclusive: 35.5 µM [inhibitor, single point]",
O=c1c2cc3c(cc2[nH]c(=S)n1CCN1CCOCC1)OCO3,"inconclusive: 11.2 µM [inhibitor, partial curve]",
Cc1cc(-n2c(C)cc(C(=O)CSc3ncnc4ccccc34)c2C)no1,"inconclusive: 25.1 µM [inhibitor, single point]",
O=C(CNC(=O)c1cccc(Cl)c1)N/N=C/C=C/c1ccccc1,"inconclusive: 35.5 µM [inhibitor, single point]",
CCSS(=O)(=O)c1cccc2cccnc12,active: 22.4 µM,
COc1ccc(-c2nc(-c3ccc(Br)o3)no2)cc1OC,"inconclusive: 28.2 µM [activator, single point]",
Cc1cccc(NC(=O)c2ccc(F)c(S(=O)(=O)N3CCC4(CC3)OCCO4)c2)c1,"inconclusive: 7.94 µM [activator, partial curve]",
COc1ccc2nc(/C=N/NC(=O)CCCCCNC(=O)OC(C)(C)C)ccc2c1,inactive,
CC1(C)Cc2nc3sc(C(=O)NCCCO)c(N)c3cc2CS1,"inconclusive: 35.5 µM [inhibitor, single point]",
C=CCc1cccc(/C=N/NC(=O)CCCNc2ccc(C)cc2)c1O,active: 1 µM,
COc1ccccc1Cn1c(=S)[nH]c2cc(C(=O)NCc3cccnc3)ccc2c1=O,"inconclusive: 35.5 µM [inhibitor, single point]",

# No new results follow: an excerpt of the list.
Structure (SMILES),Potency,"activity change, negative = inhibition"
O=[N+]([O-])c1ccc(NCCCNS(=O)(=O)c2ccc(Cl)cc2)c(Cl)c1,"inconclusive: 35.5 µM [activator, single point]",
Cn1c(O)c(N=NC(=O)C2COc3ccccc3O2)c2ccccc21 (stereo not drawn),inactive,
O=C(O)CCCCCN1C(=O)/C(=C/c2ccncc2)SC1=S,active: 11.2 µM,
CCCCN(CC)Cc1ccc(CNC(=S)Nc2c(C)cc(C)cc2C)o1,active: 3.16 µM,
CC1CCc2c(C(=O)Nc3ccc(OC(F)(F)F)cc3)csc2C1 (stereo not drawn),"inconclusive: 11.2 µM [activator, partial curve]",
O=C(N/N=C/c1cn(-c2cccs2)nc1-c1ccccc1)c1ccccc1Br,active: 5.62 µM,
CC(NC(=O)CCSc1nc(-c2ccc3c(c2)OCO3)cc(C(F)(F)F)n1)c1ccccc1 (stereo not drawn),inactive,
c1ccc(-n2cnc3cc(NCc4ccccn4)ccc32)cc1,"inconclusive: 2 µM [activator, partial curve, poor fit]",
O=C(CN(C(=O)CCC(=O)Nc1nccs1)c1ccc(F)c(Cl)c1)NCc1ccco1,"inconclusive: 35.5 µM [activator, single point]",
CCNC(=S)N1CCN(c2ncccn2)CC1,"inconclusive: 4.47 µM [activator, partial curve]",
COC(=O)[C@@H](NC(=O)O[C@@H]1C(=O)c2cc(OC)ccc2O[C@H]1c1ccc(OC)c(Br)c1)C(C)C,inactive,
CCC1(C)Cc2ccccc2C(=S)N1 (stereo not drawn),active: 8.91 µM,
O=C(Nc1ccncc1)c1ccc(F)cc1,"inconclusive: 35.5 µM [inhibitor, single point]",
